PubChem BioAssay AID1259425 – University of Nebraska Medical Center – 2018
This is an unselected part of about 14,000 deposited reagents. No sequences are given here. The record does not give: the time to read-out.

Assay: 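Compare each knockdown with KSR1 silencing using changes in marker transcripts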 (primary screen)
Cells: HCT116 human colon cancer cells
Reagent: siRNA pool against human genes, 50 nM siRNA
Measurement: 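After 50 nM siRNA pool, branched-DNA assay measures six marker transcripts per well, minus blank, normalised to the geometric mean of two housekeeping transcripts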
Reading the numbers: BNIP3L mRNA: higher = more BNIP3L transcript after knockdown; NDRG1 mRNA: higher = more NDRG1 transcript after knockdown; BNIP3 mRNA: higher = more BNIP3 transcript after knockdown; ALDOC mRNA: higher = more ALDOC transcript after knockdown; ACSL5 mRNA: higher = more ACSL5 transcript after knockdown

| Gene | BNIP3L mRNA, set 1 | NDRG1 mRNA, set 1 | BNIP3 mRNA, set 1 | ALDOC mRNA, set 1 | ACSL5 mRNA, set 1 |
| --- | --- | --- | --- | --- | --- |
| SNX8 (sorting nexin 8) | 0.0987 | 0.192 | 0.357 | 0.0241 | 0.151 |
| SCAF1 (SR-related CTD associated factor 1) | 0.816 | 0.967 | 1.92 | 0.201 | 0.251 |
| TBC1D8 (TBC1 domain family member 8) | 0.192 | 0.584 | 0.373 | 0.0575 | 0.255 |
| NFATC3 (nuclear factor of activated T cells 3) | 0.162 | 0.101 | 0.249 | 0.0122 | 0.0936 |
| ANKEF1 (ankyrin repeat and EF-hand domain containing 1) | 0.0592 | 0.05 | 0.19 | 0.00599 | 0.141 |
| BMP6 (bone morphogenetic protein 6) | 0.0537 | 0.165 | 0.294 | 0.028 | 0.189 |

Laid out differently: results already given.
TBC1D8 (TBC1 domain family member 8): BNIP3L mRNA, set 1 = 0.192; NDRG1 mRNA, set 1 = 0.584; BNIP3 mRNA, set 1 = 0.373; ALDOC mRNA, set 1 = 0.0575; ACSL5 mRNA, set 1 = 0.255
NFATC3 (nuclear factor of activated T cells 3): BNIP3L mRNA, set 1 = 0.162; NDRG1 mRNA, set 1 = 0.101; BNIP3 mRNA, set 1 = 0.249; ALDOC mRNA, set 1 = 0.0122; ACSL5 mRNA, set 1 = 0.0936
ANKEF1 (ankyrin repeat and EF-hand domain containing 1): BNIP3L mRNA, set 1 = 0.0592; NDRG1 mRNA, set 1 = 0.05; BNIP3 mRNA, set 1 = 0.19; ALDOC mRNA, set 1 = 0.00599; ACSL5 mRNA, set 1 = 0.141

The listing continues:
| Gene | BNIP3L mRNA, set 1 | NDRG1 mRNA, set 1 | BNIP3 mRNA, set 1 | ALDOC mRNA, set 1 | ACSL5 mRNA, set 1 |
| --- | --- | --- | --- | --- | --- |
| NDUFAF7 (NADH:ubiquinone oxidoreductase complex assembly factor 7) | 0.121 | 0.0649 | 0.236 | 0.0132 | 0.0492 |
| VDAC1 (voltage dependent anion channel 1) | 0.135 | 0.136 | 0.373 | 0.026 | 0.232 |
| LY6K (lymphocyte antigen 6 family member K) | 0.188 | 0.142 | 0.364 | 0.0376 | 0.17 |
| PDGFRA (platelet derived growth factor receptor alpha) | 0.0601 | 0.0959 | 0.235 | 0.00408 | 0.238 |
| RBL1 (RB transcriptional corepressor like 1) | 0.126 | 0.262 | 0.188 | 0.0244 | 0.135 |
| SH3BP5L (SH3 binding domain protein 5 like) | 0.163 | 1.11 | 0.467 | 0.0614 | 0.376 |
| WWTR1 (WW domain containing transcription regulator 1) | 0.0986 | 0.145 | 0.329 | 0.0225 | 0.178 |
| POLH (DNA polymerase eta) | 0.0741 | 0.44 | 0.237 | 0.0229 | 0.221 |
| PITPNM2 (phosphatidylinositol transfer protein membrane associated 2) | 0.105 | 0.272 | 0.338 | 0.0143 | 0.394 |
| TARS1 (threonyl-tRNA synthetase 1) | 0.114 | 0.126 | 0.307 | 0.0238 | 0.157 |
| KCNC4 (potassium voltage-gated channel subfamily C member 4) | 0.141 | 1.13 | 0.321 | 0.0196 | 0.383 |
| CHI3L1 (chitinase 3 like 1) | 0.0963 | 0.0775 | 0.246 | 0.013 | 0.14 |
| ZNF668 (zinc finger protein 668) | 0.119 | 0.181 | 0.283 | 0.0515 | 0.149 |
| GK (glycerol kinase) | 0.0561 | 0.157 | 0.264 | 0.00768 | 0.301 |
